According to the supplement of paper PMC10849652:
Some of the results follow.

Protein sequences, listed by entry. Tags and fused reporters are not part of them. Lines headed by an entry give the natural chain unless they say otherwise; changes in a name come on top.
UniProt P62256: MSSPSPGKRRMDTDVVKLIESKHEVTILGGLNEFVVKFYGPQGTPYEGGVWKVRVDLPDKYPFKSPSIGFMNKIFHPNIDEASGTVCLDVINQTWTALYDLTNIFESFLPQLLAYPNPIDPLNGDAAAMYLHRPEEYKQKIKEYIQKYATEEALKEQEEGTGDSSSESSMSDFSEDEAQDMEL
UniProt P63146, whole entry, looked up: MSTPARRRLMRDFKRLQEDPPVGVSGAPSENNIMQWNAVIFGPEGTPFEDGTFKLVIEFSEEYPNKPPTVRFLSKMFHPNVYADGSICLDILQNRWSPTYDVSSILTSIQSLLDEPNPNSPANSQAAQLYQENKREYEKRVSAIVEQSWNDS
UniProt Q5TAX3: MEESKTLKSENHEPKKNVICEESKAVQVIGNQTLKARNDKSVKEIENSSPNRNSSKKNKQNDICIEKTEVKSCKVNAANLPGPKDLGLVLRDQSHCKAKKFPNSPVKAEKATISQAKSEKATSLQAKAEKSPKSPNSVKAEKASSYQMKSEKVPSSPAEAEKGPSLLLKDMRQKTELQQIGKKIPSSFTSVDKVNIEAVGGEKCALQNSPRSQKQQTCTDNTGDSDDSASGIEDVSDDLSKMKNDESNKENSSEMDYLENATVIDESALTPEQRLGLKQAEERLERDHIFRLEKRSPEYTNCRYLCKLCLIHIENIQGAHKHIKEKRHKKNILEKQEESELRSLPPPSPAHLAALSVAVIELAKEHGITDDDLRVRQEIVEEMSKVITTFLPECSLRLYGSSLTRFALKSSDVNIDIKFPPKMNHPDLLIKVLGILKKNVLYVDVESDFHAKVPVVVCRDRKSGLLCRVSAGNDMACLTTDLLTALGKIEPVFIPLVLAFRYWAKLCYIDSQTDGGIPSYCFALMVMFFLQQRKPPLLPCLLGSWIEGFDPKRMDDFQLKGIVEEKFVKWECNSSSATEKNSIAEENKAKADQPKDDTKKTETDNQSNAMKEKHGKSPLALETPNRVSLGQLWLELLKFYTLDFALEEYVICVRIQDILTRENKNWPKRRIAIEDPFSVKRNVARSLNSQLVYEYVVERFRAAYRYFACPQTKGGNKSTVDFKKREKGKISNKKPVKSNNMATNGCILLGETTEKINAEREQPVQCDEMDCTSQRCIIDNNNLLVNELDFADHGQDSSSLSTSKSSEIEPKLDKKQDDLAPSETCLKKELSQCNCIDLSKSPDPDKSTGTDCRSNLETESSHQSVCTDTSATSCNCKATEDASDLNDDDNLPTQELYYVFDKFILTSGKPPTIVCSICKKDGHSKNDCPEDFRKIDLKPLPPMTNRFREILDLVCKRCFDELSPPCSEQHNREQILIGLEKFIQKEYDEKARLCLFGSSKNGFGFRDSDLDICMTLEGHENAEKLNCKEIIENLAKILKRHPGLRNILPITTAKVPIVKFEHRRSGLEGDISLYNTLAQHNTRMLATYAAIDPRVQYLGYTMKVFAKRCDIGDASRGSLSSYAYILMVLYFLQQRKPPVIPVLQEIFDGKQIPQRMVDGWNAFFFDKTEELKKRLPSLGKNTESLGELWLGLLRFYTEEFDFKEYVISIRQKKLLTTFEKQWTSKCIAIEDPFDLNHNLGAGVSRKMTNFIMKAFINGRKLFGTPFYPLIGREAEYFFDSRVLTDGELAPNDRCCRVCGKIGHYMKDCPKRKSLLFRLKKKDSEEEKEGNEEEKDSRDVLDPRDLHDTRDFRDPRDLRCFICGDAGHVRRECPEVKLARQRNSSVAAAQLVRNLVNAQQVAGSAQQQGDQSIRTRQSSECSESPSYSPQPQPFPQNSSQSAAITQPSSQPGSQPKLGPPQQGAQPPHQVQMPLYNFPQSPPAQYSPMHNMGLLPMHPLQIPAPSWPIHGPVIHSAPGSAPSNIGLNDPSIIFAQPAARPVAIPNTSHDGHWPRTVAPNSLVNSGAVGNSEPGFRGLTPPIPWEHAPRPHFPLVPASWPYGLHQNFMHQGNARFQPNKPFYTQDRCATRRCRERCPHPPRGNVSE
UniProt P61081: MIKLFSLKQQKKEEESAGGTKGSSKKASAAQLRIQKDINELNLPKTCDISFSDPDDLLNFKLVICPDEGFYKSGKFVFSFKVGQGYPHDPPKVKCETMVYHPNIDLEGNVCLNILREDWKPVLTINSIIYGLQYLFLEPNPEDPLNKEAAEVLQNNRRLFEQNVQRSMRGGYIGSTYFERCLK
UniProt O43156, whole entry, looked up: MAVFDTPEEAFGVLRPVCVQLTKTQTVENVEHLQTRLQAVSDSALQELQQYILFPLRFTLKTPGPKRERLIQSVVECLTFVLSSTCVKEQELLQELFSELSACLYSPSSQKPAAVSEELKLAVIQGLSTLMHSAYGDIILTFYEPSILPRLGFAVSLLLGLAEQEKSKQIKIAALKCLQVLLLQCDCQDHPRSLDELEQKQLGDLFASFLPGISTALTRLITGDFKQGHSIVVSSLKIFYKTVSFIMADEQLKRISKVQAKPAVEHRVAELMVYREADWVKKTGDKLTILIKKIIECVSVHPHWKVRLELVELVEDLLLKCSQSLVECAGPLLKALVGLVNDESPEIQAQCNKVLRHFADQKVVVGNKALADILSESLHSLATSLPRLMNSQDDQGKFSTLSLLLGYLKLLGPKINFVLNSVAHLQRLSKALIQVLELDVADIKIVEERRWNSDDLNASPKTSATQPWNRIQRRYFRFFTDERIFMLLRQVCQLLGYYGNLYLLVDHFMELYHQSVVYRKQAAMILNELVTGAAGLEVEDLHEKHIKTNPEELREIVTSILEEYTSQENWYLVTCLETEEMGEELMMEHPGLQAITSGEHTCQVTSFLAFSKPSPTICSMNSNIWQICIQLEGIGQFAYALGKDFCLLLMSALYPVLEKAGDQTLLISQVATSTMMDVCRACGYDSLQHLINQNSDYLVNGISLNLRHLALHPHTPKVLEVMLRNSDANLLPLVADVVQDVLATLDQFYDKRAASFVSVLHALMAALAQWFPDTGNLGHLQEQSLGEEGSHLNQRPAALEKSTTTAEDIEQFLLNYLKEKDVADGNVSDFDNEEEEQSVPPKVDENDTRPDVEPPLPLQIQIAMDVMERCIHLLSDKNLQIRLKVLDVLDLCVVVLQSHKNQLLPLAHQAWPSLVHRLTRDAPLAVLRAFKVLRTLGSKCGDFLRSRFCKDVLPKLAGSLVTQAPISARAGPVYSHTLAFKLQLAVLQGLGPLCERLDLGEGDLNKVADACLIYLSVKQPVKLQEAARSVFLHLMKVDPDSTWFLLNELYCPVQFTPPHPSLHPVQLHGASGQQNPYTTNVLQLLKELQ
UniProt Q9H4B7, whole entry, looked up: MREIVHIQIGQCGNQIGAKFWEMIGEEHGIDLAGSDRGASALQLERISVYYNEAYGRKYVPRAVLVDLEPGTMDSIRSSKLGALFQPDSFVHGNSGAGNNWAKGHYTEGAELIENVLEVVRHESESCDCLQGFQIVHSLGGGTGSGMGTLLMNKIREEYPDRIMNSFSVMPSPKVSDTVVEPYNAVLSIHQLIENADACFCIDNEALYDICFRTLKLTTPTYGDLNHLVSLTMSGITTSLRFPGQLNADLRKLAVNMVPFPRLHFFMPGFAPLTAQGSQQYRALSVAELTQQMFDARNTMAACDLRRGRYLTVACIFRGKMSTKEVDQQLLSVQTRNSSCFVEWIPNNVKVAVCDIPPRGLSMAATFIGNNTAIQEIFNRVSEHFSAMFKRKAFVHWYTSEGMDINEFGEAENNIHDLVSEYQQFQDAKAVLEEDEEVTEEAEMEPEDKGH
UniProt Q01081: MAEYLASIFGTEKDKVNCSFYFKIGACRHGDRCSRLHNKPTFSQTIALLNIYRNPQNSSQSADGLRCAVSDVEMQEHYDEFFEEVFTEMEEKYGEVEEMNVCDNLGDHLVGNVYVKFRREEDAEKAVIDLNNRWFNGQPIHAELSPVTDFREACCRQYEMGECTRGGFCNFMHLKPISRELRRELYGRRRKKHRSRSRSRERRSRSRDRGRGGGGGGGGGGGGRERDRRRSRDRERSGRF
UniProt P30536, whole entry, looked up: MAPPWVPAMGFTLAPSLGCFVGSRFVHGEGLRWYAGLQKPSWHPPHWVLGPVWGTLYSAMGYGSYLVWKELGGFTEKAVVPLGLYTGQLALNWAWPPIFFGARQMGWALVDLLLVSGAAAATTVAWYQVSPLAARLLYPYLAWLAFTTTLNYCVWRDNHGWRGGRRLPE

Assays:
Experiment in all cases: log2 fold change, soluble protein after heating vs DMSO (PISA); higher = thermal stabilisation; K562 cells, 10 uM, 30 min; active = over 0.2 and 3.5 SD of the protein, either way, in both replicates (recomputed)
[1] = compound: CC1=C(C=C(C=C1)NC(=O)C2=CC(=CC=C2)C(C)(C)C#N)NC3=CC4=C(C=C3)N=CN(C4=O)C
Procedure, shortened: (§1)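 Values are thermal stability changes relative to control samples and are taken from duplicates. They are stated as log2 fold changes. Before quantification by TMTpro 16plex LC-MS/MS with equalised channel sums, K562 cells at 2×10^6 cells/mL were treated with 10 μM compound for 30 min, heated in aliquots for 3 min across 48°C-58°C, pooled, extracted in PBS with 0.5% NP-40 at 4°C, and centrifuged at 21,000xg for 90 min to give the soluble supernatant.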

[2] = compound: CC1=C(C=C(C=C1)NC(=O)C2=CC(=CC=C2)N(C)C)NC(=O)C3=CC=C(C=C3)O
Procedure, shortened: as §1

[3] = compound: CC1=CC=C(C=C1)SC2=C3C=C(SC3=CN=C2)C(=O)N
Procedure, shortened: as §1

[4] = compound: CC1=NC(=CC=C1)C2=C(N=C(N2)C(C)(C)C)C3=CC4=NC=CN=C4C=C3
Procedure, shortened: as §1

Nexturastat A = compound: CCCCN(Cc1ccc(C(=O)NO)cc1)C(=O)Nc1ccccc1 [Nexturastat A]
Procedure, shortened: as §1

vemurafenib = compound: CCCS(=O)(=O)Nc1ccc(F)c(C(=O)c2c[nH]c3ncc(-c4ccc(Cl)cc4)cc23)c1F [vemurafenib]
Procedure, shortened: as §1

[5] = compound: CCCS(=O)(=O)Nc1ccc(F)c(C(=O)c2c[nH]c3ncc(Cl)cc23)c1F
Procedure, shortened: as §1

[6] = compound: CCCc1cc(C)[nH]c(=O)c1CNC(=O)c1cc(-c2ccnc(N3CCN(C)CC3)c2)cc2c1cnn2C(C)C
Procedure, shortened: as §1

givinostat = compound: CCN(CC)Cc1ccc2cc(COC(=O)Nc3ccc(C(=O)NO)cc3)ccc2c1 [givinostat]
Procedure, shortened: as §1

barasertib = compound: CCN(CCCOc1ccc2c(Nc3cc(CC(=O)Nc4cccc(F)c4)[nH]n3)ncnc2c1)CCOP(=O)(O)O [barasertib]
Procedure, shortened: as §1

[7] = compound: CC[C@@H]1C(=O)N(C)c2cnc(Nc3ccc(C(=O)NC4CCN(C)CC4)cc3OC)nc2N1C1CCCC1
Procedure, shortened: as §1

volasertib = compound: CC[C@@H]1C(=O)N(C)c2cnc(Nc3ccc(C(=O)N[C@H]4CC[C@H](N5CCN(CC6CC6)CC5)CC4)cc3OC)nc2N1C(C)C [volasertib]
Procedure, shortened: as §1

[8] = compound: CC[C@H](C)N1C=C(C2=C(C=C(C=C21)C3=CN=C(C=C3)N4CCNCC4)C(=O)NCC5=C(C=C(NC5=O)C)C)C
Procedure, shortened: as §1

epoxomicin = compound: CC[C@H](C)[C@@H](C(=O)N[C@@H]([C@@H](C)O)C(=O)N[C@@H](CC(C)C)C(=O)[C@]1(CO1)C)NC(=O)[C@H]([C@@H](C)CC)N(C)C(=O)C [epoxomicin]
Procedure, shortened: as §1

[9] = compound: CCn1c(C(=O)N(C2CC2)C2CC2)cc2c3c(ncn3C)c(Nc3cc(C)n(C)n3)nc21
Procedure, shortened: as §1

[10] = compound: CCn1cc(-c2ccnc3[nH]c(-c4cccc(CN(C)C)c4)cc23)c(-c2ccc(NC(=O)N(C)C)cc2)n1
Procedure, shortened: as §1

[11] = compound: CN(C)CC(=O)Nc1ccc2[nH]c(=O)c3ccccc3c2c1
Procedure, shortened: as §1

rosiglitazone = compound: CN(CCOC1=CC=C(C=C1)C[C@H]2C(=O)NC(=O)S2)C3=CC=CC=N3 (racemic) [rosiglitazone]
Procedure, shortened: as §1

[12] = compound: CN1C2=C(C3=C1C(=O)N(N=C3)CC4=CC(=CC=C4)N)SC(=C2)S(=O)C
Procedure, shortened: as §1

[13] = compound: CN1CCC(CNc2ccc3ncc(-c4cccc(OC(F)(F)F)c4)n3n2)CC1
Procedure, shortened: as §1

Measured: log2 fold change

UBE2H (UniProt P62256)
inactive: [1] -0.013 | [2] 0.051 | [3] 0.01 | [4] 0.021 | Nexturastat A -0.006 | vemurafenib -0.006 | [5] 0.073 | [6] -0.01 | givinostat -0.02 | barasertib 0.063 | [7] -0.033 | volasertib -0.154 | [8] 0.036 | epoxomicin 0.045 | [9] 0.029 | [10] 0.029 | [11] 0.002 | rosiglitazone 0.006 | [12] -0.029 | [13] -0.047

UBE2B (UniProt P63146)
inactive: [1] 0.07 | [2] -0.076 | [3] 0.053 | [4] 0.04 | Nexturastat A -0.022 | vemurafenib -0.04 | [5] 0.066 | [6] -0.038 | givinostat -0.115 | barasertib 0.039 | [7] -0.057 | volasertib -0.143 | [8] 0.024 | epoxomicin 0.021 | [9] 0.082 | [10] 0.034 | [11] 0.051 | rosiglitazone 0.074 | [12] 0.094 | [13] 0.092

TUT4 (UniProt Q5TAX3)
active: [12] 0.566
inactive: [1] -0.124 | [2] -0.106 | [3] -0.081 | [4] -0.121 | Nexturastat A 0.449 | vemurafenib -0.129 | [5] -0.008 | [6] -0.124 | givinostat 0.069 | barasertib 0.027 | [7] -0.064 | volasertib -0.229 | [8] -0.15 | epoxomicin -0.219 | [10] 0.046 | [11] 0.018 | [13] -0.235

UBE2M (UniProt P61081)
inactive: [1] -0.002 | [2] -0.039 | [3] 0.016 | [4] 0.054 | Nexturastat A -0.089 | vemurafenib 0.042 | [5] 0.03 | [6] -0.034 | givinostat 0.017 | barasertib 0.045 | [7] -0.073 | volasertib -0.126 | [8] 0.047 | epoxomicin 0.041 | [9] -0.026 | [10] -0.002 | [11] 0.012 | rosiglitazone 0.04 | [12] -0.044 | [13] -0.08

TTI1 (UniProt O43156)
active: volasertib -0.431
inactive: [1] 0.147 | [2] -0.027 | [3] 0.086 | [4] -0.026 | Nexturastat A 0.02 | vemurafenib 0.082 | [5] 0.095 | [6] -0.016 | givinostat 0.135 | barasertib 0.068 | [7] -0.208 | [8] 0.08 | epoxomicin -0.024 | [10] -0.038 | [11] 0.048 | [12] 0.134 | [13] -0.134

TUBB1 (UniProt Q9H4B7)
inactive: [1] 0.042 | [2] -0.061 | [3] 0 | [4] 0.103 | Nexturastat A -0.064 | vemurafenib 0.028 | [5] -0.037 | [6] -0.002 | givinostat -0.027 | barasertib -0.012 | [7] -0.037 | volasertib 0.083 | [8] 0.051 | epoxomicin -0.016 | [9] 0.008 | [10] -0.054 | [11] 0.012 | rosiglitazone 0.028 | [12] -0.063 | [13] -0.083

U2AF1 isoform 2 (UniProt Q01081)
active: volasertib -0.57
inactive: [1] -0.011 | [2] -0.078 | [3] -0.01 | [4] 0.091 | Nexturastat A 0.011 | vemurafenib 0.074 | [5] 0.071 | [6] -0.009 | givinostat 0.022 | barasertib 0.009 | [7] -0.217 | [8] 0.051 | epoxomicin -0.02 | [10] -0.015 | [11] 0.071 | [12] -0.021 | [13] -0.036

TSPO (UniProt P30536)
inactive: [1] -0.008 | [2] 0 | [3] -0.052 | [4] -0.023 | Nexturastat A -0.078 | vemurafenib -0.069 | [5] 0.015 | [6] -0.23 | givinostat -0.027 | barasertib -0.022 | [7] 0.095 | volasertib 0.124 | [8] -0.067 | epoxomicin -0.037 | [9] 0.001 | [10] 0.023 | [11] 0.068 | rosiglitazone 0.006 | [12] -0.026 | [13] 0.048
